Results as given in publication PMC10901781.
These are yes or no findings as the source states them, for the method shown. Binding seen in cells or lysates may run through a third protein. Some entries that bind do so weakly or less than the wild type.

The chains behind the UniProt entries cited, without tags or fusion partners.
UniProt Q01196: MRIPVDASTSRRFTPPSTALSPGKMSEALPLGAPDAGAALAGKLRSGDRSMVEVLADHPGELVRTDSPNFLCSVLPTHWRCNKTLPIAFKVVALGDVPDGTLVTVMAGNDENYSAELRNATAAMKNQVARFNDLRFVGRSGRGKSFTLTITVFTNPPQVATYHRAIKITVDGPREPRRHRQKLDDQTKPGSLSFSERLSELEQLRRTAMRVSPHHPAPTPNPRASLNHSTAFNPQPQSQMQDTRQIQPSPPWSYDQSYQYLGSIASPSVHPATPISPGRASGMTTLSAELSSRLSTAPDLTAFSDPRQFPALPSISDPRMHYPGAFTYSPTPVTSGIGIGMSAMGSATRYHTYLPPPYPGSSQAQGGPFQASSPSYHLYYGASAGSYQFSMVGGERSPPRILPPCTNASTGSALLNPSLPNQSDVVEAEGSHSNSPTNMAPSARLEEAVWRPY
UniProt Q03347: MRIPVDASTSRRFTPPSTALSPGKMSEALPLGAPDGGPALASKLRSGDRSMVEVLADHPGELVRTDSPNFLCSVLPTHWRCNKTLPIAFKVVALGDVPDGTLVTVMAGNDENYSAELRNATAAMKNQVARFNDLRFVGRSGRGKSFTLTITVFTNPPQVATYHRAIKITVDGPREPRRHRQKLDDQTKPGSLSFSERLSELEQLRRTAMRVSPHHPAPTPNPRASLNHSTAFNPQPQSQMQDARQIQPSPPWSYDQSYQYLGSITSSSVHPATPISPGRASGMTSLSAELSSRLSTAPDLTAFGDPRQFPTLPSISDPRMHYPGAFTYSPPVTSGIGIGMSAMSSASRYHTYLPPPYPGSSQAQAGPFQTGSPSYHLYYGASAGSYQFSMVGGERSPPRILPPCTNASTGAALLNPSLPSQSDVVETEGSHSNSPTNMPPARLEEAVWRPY

How the values were obtained:
[1] = biological target: T1, PHF6 (human (endogenous in THP-1)) (UniProt Q8IWS0); assay: co-IP; endogenous proteins, THP-1 nuclear protein extracts; agarose-conjugated anti-PHF6 or anti-RUNX1 antibody, IgG control; 4 °C overnight, five washes of 1x PBS with 1% NP-40; western blot
T1 sequence: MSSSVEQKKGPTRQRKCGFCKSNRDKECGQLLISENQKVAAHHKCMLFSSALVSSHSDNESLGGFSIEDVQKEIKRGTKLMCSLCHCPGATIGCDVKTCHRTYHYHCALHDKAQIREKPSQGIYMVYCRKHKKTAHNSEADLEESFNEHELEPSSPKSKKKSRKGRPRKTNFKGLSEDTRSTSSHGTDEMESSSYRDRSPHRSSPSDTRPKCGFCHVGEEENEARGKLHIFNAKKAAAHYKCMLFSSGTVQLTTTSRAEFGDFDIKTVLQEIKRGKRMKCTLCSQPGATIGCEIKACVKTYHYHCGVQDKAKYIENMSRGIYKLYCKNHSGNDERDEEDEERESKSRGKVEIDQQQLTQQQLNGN

[2] = biological target: T2, Phf6 (mouse (endogenous in spleen and bone marrow cells)) (UniProt Q9D4J7); assay: co-IP; reciprocal IPs of endogenous Phf6 and Runx1, mouse spleen and bone marrow protein extracts; IgG control; western blot
T2 sequence: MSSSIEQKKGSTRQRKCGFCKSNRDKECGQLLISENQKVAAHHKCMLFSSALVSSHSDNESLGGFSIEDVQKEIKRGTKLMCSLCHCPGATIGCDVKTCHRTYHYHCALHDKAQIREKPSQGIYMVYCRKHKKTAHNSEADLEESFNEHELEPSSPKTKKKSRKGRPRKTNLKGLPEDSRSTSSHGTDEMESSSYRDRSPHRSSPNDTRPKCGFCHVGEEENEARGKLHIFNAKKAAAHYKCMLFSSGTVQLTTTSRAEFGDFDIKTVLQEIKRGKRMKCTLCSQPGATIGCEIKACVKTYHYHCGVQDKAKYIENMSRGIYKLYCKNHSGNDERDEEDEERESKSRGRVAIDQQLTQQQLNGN

Substance | binding [1] | binding [2]
RUNX1 (from UniProt Q01196 1-453) | binds | 
Runx1 (from UniProt Q03347 1-451) |  | binds
